Test results reported in the supplement of paper PMC5949888.
Most values lie at the floor of the assay. Slopes are relative: functional sequences can read slightly below zero.

These substances were tested on Saccharomyces cerevisiae PS128 hsf1 delta, HSF1(1-493) fusion (assay: growth estimate (transactivation domain function in HSF1 fusion, heat-shock survival) (a.u. (slope of normalised read count over time)); higher = stronger growth at 37°C, i.e. more transactivation activity). Details: library: random library.

Substance	growth estimate
PYFS	< -0.25
WLILPCWLCFHELLIHPIIF	< -0.25
NTKLR	< -0.25
KSMEMRSFI	< -0.25
RKYPNMLMQLEDLRFVKTSG	< -0.25
VGQRDISPAYRVCWRLHSVP	< -0.25
IAVGSVPSPGAESSLGFAWG	< -0.25
APVSSLAVLSSSPRGSTAST	< -0.25
LASRAGDPEVKKVPSPNISA	< -0.25
GRWDW	< -0.25
SGRGLTNAGM	< -0.25
RSESTVK	< -0.25
IGHGLGKLAGAD	< -0.25
QVAG	< -0.25
RKEKRGDFAENGTGGMEPIV	< -0.25
ADAGVRSYYSRRVGRCRRLP	< -0.25
LSPGDAHDGYSFARTYVYCC	-0.237
HVCTVDLEIQIRGH	< -0.25
GKLFQVTSWIGQS	< -0.25
SDCRIGS	< -0.25
GFSICPFTRKRYLSLSIACF	< -0.25
RMKLRTTSCL	< -0.25
IIGCLAAGVREIAASSMNRI	< -0.25
RLNSCHFPGGARNPTNRNRH	< -0.25
TKRGYAFVRQS	< -0.25

Quoted from the listing:
In growth estimate, IIGCLAAGVREIAASSMNRI reads < -0.25
In growth estimate, HVCTVDLEIQIRGH reads < -0.25

Additional results follow.

Substance	growth estimate
EQRKVRCSAF	< -0.25
QLLSGNAEDTEVSGVYLTSN	< -0.25
RRYPLESLVFCL	-0.246
FHTCPLAE	< -0.25
MVQYILRAK	< -0.25
GRGCLTIAAGNQAWRCHSHR	< -0.25
KSLRC	< -0.25
MGWIPAFMGPHNKRGSLAKL	0.161
GNREDPSDGVM	< -0.25
KGEGCGYQEYQNRSR	< -0.25
SVC	< -0.25
GERYEPT	< -0.25
ISKGPTKVGGKPTFITPTPG	< -0.25
TAQVLGTISCVCDRGPYFAH	< -0.25
LIVELRDYMRTWDFHSGWSI	< -0.25
EFEPMGLTSVKSGDATVSK	< -0.25
GAF	< -0.25
DTVSRRFEGFGYGFLAQIPT	< -0.25
FASDIRPTKVSIFYRFAGRG	< -0.25
TTQSSRLARRRRKSGSNNAY	< -0.25
GDCTDYHSKVRQTSCYGATY	< -0.25
FPGGTVTFRQYLGDVAFDRL	< -0.25
SSTMCCFFWWHTLCVVARID	< -0.25
ASRGKNICGRHDSQSHRRVA	< -0.25
CSCVGIPNGLGGNFVLPTSR	< -0.25

Substance	growth estimate
SMRSEDPSHLVDRPSYGCWK	< -0.25
KDILLL	< -0.25
KMPFQTTSVRGVITN	< -0.25
VSTNTTADESPAPPCTRPTR	< -0.25
LSISRGSSVRRCSLRR	< -0.25
NGIFSYGFTVGETSHSETR	< -0.25
EVEANTKLLQAIDELCTVWR	< -0.25
KSCLVLSGQCIWNAGDPLDS	< -0.25
PVYSTVTRRATTLPGGTPGA	< -0.25
YILYMRRLC	< -0.25
AVCVESKFQDGTKSADSSHG	< -0.25
GDSPHSLNF	< -0.25
KLRIRRPSLILMT	< -0.25
MPTDITSRRIALSNEVAIPC	< -0.25
KSWIHSSAEERQGVRDSLWG	< -0.25
SQID	< -0.25
PGCWLSSHDVSMRCHLRLTA	< -0.25
SAQKLRHRLVGRLIVTRLKD	< -0.25
AHNGVCMSATRAGDERHTRG	< -0.25
NVHPGIARGAQLRAGLSAES	< -0.25
GVLTEVSRAVRGSVRRSAVS	< -0.25
FSRVR	< -0.25
DWLSRGDSLR	< -0.25
RSAFLFSFMLPRGKWQYYSG	< -0.25
GTQRAWRKSLSIRLD	< -0.25

Substance	growth estimate
VWVVSRYKIQSIFCFILSPW	< -0.25
RLLVSL	< -0.25
SSDAVHVAAAIRPEGWRPDL	< -0.25
SGFPCLTYHNCLAQQSPSRS	< -0.25
SGGRSATDRPQRFLRIFGFG	< -0.25
GQLVPKEIVSRSANVRIPED	-0.182
LDLGNVDSGS	< -0.25
RLISPLV	< -0.25
QALLSRARLVGWRVTL	< -0.25
SHPIGAQTRRMCRDNPG	< -0.25
VKFS	< -0.25
RCHSAVCGCR	< -0.25
KTSIFEVCTKPRVSIGWSSL	< -0.25
LYPNDSRHLLAIVISKTTNC	-0.0944
ARLTRAPR	< -0.25
SRFYSGTGRHQVLPAAK	< -0.25
LRARVRCGNAVLNFEALRMT	< -0.25
MGFCPTPPYRREAICFTTER	< -0.25
TSREYKRVLGRPSKQQAVIM	< -0.25
YSILHTGE	< -0.25
TGLRLQGPVRCR	< -0.25
RWEPAQVEGFGDFA	< -0.25
RSCRR	< -0.25
LACTGPRQDTALTGVSITGR	< -0.25
RTTVNRRAWTRFRKSTYLGR	< -0.25

Substance	growth estimate
RGPRVV	< -0.25
RQPYYSSVFKAPWVCDVNNA	< -0.25
HSVEGTWKKTVGRGNYSPDP	< -0.25
KGARYLSFRLLTGNSVVANL	< -0.25
HPWFSWCPVESILSEPKCIA	< -0.25
AYTGRHGHTTW	< -0.25
MDSIEGLQRCFE	< -0.25
STIDLRSAWKQRVFHPVKAH	< -0.25
VLRERNP	< -0.25
CCPANNLDSGMGGQYEAPYA	-0.231
TANAMHGPILL	< -0.25
PWVIPQTAKGHEPRKSASAD	< -0.25
ILSGDNSAHLLAAFDYIRPG	< -0.25
EHNGRIRSPLEPFSK	< -0.25
CSGGGRLRLL	< -0.25
CMLRYFSFSCILQLKYPFIV	< -0.25
TQLGRASWNLTYRYCTWTDL	< -0.25
CKKAILCPIASAILEKRGGD	< -0.25
RRTRRCRVSMTMESDHGRFL	< -0.25
EPRAAQASGPLTPLGVRGVE	< -0.25
HMKVGTYHVQIC	< -0.25
EGGPRFPSRHKKNFSVWPVA	< -0.25
PGTKTSAHSCACLVTNRRVA	< -0.25
VMYFT	-0.0082
REHLTRAP	< -0.25

Quoted at random: 3 records from the list
Substance	growth estimate
REHLTRAP	< -0.25
RRTRRCRVSMTMESDHGRFL	< -0.25
HPWFSWCPVESILSEPKCIA	< -0.25

A second format for part of the listing above.
Substance,growth estimate
SAQKLRHRLVGRLIVTRLKD,< -0.25
RLLVSL,< -0.25
SGGRSATDRPQRFLRIFGFG,< -0.25
GQLVPKEIVSRSANVRIPED,-0.182
VLRERNP,< -0.25
TQLGRASWNLTYRYCTWTDL,< -0.25

(next part)

Substance	growth estimate
VLC	< -0.25
TRSAVFP	< -0.25
VSDRSDGSLNFFRGV	< -0.25
SLWKLCVNLMEGQWPSLQVS	< -0.25
AIRHDLVCVLEKVLVLDRCR	< -0.25
RVQGY	< -0.25
SPGI	< -0.25
FEIRALWKLTHR	< -0.25
LGYEEWKLYRAPVCKPLQNE	< -0.25
VSTRQLETVRPGFRWQISRI	< -0.25
TGIHL	< -0.25
RLEVR	< -0.25
FRRNREFKRSYD	< -0.25
RPHIPWGEDRRLMSIPSGEW	< -0.25
STYSALALALLGPN	< -0.25
GLVEVSRSPDAGDLGVG	< -0.25
WRNKL	< -0.25
EVLELS	< -0.25
CCRGAGIT	< -0.25
GAISGWMKSGYQVVTSAFHG	< -0.25
APIQT	< -0.25
PNYVQPVSD	< -0.25
ALVFGPRTLHSRRTSPEWAK	< -0.25
AAPGSESLRREQTLRDRSVG	< -0.25
VTSRVVGSIRGHSVSDFGTS	< -0.25

Substance	growth estimate
AALMSTDLGSRRFRLPEVHV	< -0.25
TWA	< -0.25
HQGDRWAPDVIRGDLIPGVP	< -0.25
SIVPGHGGIKGPVGRGANSA	< -0.25
PAHD	< -0.25
WEAQDKRGSYANGQTELTAL	< -0.25
RGCVTYRPRKWQS	< -0.25
VVPLLQREALNFLREASDLH	< -0.25
TNISRIVFANAACTRFSGGR	< -0.25
GTFA	< -0.25
EVTP	< -0.25
EDLGYCRGLPSWELSL	-0.159
TGDVLQARDVSGRS	< -0.25
CSFWTLCYTHLS	< -0.25
AITNPCPIS	< -0.25
ARYKETIPRGRVGIDVSCLS	< -0.25
RDMGVGLPKSPRAFDHGLLA	-0.172
MRDVSEQVEGWGIRSFPFRR	< -0.25
HWKVSTFGSRTF	< -0.25
VGETEVDAATR	< -0.25
IDTREMYVFERTSTRTTHSR	-0.243
SIIAISAHFWGYQALGGTRV	< -0.25
RTAC	< -0.25
GGKVRKATREDELRYSIGLP	< -0.25
IPH	< -0.25

Substance	growth estimate
TGLS	-0.243
TAG	< -0.25
REKTEGIGGRFPF	< -0.25
EGPSI	< -0.25
FFGCSNSCDQLPSFKAKHRS	< -0.25
MGGLGGSTSIPPVIHGRA	< -0.25
YLTR	< -0.25
LDLAKAGTLLTGPNRLAASR	< -0.25
ITSEIFFTRNLQRGGDLVLN	< -0.25
TLLHPRGRGMLVLM	< -0.25
SLEPGEAPPIVAKHIGDGPT	< -0.25
MGLSSFNDRKSCDVTLRSSS	< -0.25
ESPASLH	< -0.25
RPFGQYAATTRGLSF	-0.134
DSLLI	< -0.25
GVLHLY	< -0.25
VRYSVAKRLRRPIGKHSA	< -0.25
ETLCSRDYARRD	0.393
ILALID	< -0.25
LTSLVHK	< -0.25
YVCPTLN	< -0.25
ISSNVKGLRRGSVTGARGIP	< -0.25
TSVR	< -0.25
SLCAHWLCCHWQMVTCSSTE	< -0.25
DRGYEEPGAAH	< -0.25
